# Source: patent publication US7652155B2, “Diamine derivative, production process therefor and antioxidant” (Nippon Soda Co., Ltd., priority 2003, dated 2010)
# For at least one compound, name, drawing or mass did not settle the structure.
# System: lipid peroxide in rat brain homogenate
# Assay: Antioxidative action on lipids in vitro (lipid peroxide activity in rat brain homogenate, thiobarbituric acid method)
# Type: biochemical
# Conditions: 500 μM cysteine, 5 μM ferrous sulfate, 100 mM KCl, 30 minutes at 37° C., malondialdehyde, read-out: 50% inhibitory concentration of anti-lipid peroxide action in vitro (IC50)
# Experimental: The antioxidative action on lipids in vitro of the compounds according to the present invention was evaluated in accordance with the method of Malvy et al. (Malvy C. et al.,) described in Biochemical and Biophysical Research Communications, 1980, vol. 95, pp. 734 to 737,) by measuring the lipid peroxide activity in a rat brain homogenate. Namely, the rat brain was removed followed by the addition of five volumes of an aqueous solution of phosphate buffered saline (pH 7.4) (hereinafter, abbreviated as PBS) to the brain while cooling with water, homogenizing with a Teflon homogenizer, and centrifuging for 20 minutes at 10,000 g to collect the supernatant as a brain homogenate. 500 μM cysteine, 5 μM ferrous sulfate, and 100 mM KCl were added to the resulting brain homogenate followed by incubating for 30 minutes at 37° C. and measuring the malondialdehyde that formed due to decomposition of lipid peroxide using the thiobarbituric acid method. The 50% inhibitory concentrations (hereinafter, abbreviated as IC50) of the compounds according to the present invention were then determined from the measured values.
smiles,measurement,value
Cc1c(C)c2c(c(CN)c1N)CC(C)(C)O2 [Compound No. 1],IC50,2.5 µM
